Assay results taken from the supplement of paper PMC10849652.
This is one part of the list.

The chains behind the UniProt entries cited, without tags or fusion partners. Where a name states a change or a piece, a line headed by the entry shows the natural chain unless it says otherwise.
UniProt Q96RT8, whole entry, looked up: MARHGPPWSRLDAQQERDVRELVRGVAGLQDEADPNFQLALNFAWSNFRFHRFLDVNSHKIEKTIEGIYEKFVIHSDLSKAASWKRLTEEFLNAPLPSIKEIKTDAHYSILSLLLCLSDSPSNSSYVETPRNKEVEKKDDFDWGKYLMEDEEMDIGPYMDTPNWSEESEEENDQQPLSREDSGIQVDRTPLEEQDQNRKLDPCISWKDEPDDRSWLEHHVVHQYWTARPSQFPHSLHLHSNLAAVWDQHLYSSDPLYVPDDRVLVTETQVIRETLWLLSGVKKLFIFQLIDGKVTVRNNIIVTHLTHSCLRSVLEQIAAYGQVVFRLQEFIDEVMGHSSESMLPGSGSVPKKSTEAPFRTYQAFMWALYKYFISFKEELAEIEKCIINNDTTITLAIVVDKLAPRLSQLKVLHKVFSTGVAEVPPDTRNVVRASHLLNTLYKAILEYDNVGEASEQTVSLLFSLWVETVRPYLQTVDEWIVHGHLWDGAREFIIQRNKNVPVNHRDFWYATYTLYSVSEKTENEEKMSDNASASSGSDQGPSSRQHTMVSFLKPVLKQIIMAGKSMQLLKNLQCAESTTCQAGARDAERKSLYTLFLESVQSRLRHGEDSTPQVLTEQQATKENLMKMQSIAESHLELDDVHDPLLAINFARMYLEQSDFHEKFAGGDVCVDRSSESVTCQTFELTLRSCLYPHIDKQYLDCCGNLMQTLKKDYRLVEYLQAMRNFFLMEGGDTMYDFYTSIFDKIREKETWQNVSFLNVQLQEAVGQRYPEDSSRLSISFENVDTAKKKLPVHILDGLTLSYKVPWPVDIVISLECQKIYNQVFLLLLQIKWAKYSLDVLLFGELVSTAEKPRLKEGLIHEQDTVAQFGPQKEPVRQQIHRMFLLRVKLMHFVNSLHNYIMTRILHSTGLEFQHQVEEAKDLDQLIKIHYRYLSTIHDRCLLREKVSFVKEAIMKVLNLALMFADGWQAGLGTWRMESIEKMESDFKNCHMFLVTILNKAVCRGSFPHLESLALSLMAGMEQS
UniProt Q7Z4L5: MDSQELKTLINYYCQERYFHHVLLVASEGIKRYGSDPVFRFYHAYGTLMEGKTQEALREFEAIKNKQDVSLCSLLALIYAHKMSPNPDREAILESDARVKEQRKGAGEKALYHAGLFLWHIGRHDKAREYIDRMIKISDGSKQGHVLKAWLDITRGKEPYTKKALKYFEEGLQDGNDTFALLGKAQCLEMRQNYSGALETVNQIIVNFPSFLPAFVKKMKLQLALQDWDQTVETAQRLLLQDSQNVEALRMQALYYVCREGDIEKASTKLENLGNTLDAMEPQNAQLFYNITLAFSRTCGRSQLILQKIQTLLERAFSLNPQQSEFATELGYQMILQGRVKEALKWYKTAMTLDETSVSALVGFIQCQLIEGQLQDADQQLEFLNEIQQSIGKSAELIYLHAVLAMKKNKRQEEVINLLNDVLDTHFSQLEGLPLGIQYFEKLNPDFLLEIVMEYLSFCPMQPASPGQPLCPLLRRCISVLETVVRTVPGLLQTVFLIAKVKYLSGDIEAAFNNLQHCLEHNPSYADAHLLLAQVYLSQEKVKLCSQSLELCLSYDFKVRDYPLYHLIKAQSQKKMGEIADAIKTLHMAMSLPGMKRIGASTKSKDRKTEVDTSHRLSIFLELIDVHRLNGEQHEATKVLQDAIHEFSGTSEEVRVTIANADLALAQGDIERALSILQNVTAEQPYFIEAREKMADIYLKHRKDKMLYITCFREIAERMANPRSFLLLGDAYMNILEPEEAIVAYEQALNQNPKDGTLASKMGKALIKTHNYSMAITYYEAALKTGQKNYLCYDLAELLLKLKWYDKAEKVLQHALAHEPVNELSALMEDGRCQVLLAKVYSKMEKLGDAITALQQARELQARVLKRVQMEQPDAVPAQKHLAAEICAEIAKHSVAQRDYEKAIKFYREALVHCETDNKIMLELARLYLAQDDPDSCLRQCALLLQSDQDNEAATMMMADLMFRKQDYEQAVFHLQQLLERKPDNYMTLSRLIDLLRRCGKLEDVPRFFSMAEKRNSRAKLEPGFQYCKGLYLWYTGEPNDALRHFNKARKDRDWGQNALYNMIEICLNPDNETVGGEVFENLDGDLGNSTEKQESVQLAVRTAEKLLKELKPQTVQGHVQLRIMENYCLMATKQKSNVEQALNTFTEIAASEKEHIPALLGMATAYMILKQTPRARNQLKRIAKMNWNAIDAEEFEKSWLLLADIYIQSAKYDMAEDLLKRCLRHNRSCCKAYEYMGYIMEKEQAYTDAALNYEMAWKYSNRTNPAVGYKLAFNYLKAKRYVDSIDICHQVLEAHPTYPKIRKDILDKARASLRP
UniProt Q16881, whole entry, looked up: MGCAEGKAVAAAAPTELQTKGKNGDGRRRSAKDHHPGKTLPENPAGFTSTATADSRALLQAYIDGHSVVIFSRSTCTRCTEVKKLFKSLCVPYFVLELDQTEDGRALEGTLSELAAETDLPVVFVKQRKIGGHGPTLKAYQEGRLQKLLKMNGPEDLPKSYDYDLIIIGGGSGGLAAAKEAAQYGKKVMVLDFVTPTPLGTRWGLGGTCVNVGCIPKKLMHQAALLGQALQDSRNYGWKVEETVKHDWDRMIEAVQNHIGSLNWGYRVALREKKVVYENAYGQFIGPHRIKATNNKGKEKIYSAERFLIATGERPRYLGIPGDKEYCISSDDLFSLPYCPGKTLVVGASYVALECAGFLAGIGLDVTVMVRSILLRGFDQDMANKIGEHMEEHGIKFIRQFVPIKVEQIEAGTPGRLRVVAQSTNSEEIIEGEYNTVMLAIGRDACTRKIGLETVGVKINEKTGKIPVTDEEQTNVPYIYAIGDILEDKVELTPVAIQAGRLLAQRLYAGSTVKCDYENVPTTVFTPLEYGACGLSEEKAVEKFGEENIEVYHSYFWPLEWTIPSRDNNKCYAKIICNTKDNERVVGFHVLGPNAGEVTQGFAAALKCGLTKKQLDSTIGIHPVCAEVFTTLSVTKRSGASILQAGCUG
UniProt Q8N2K1: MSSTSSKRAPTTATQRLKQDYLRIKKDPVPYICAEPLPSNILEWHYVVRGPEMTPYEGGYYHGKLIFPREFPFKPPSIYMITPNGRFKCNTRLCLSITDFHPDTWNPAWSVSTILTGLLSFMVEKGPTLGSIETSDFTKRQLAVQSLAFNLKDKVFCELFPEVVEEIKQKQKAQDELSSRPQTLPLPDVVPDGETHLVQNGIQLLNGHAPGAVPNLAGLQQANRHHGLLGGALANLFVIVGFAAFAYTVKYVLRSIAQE
UniProt Q9H0U9: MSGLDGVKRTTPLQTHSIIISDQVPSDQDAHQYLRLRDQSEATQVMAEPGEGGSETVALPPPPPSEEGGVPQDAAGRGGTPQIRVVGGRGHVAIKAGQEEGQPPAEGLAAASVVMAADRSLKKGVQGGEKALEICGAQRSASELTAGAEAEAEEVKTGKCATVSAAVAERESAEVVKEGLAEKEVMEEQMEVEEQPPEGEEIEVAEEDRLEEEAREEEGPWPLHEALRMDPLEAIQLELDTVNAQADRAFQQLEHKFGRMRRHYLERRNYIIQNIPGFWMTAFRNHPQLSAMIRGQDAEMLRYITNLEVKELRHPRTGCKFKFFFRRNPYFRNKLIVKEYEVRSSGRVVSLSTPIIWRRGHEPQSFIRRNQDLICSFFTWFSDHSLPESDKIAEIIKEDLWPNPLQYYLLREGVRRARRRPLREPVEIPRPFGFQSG
UniProt Q96AE7: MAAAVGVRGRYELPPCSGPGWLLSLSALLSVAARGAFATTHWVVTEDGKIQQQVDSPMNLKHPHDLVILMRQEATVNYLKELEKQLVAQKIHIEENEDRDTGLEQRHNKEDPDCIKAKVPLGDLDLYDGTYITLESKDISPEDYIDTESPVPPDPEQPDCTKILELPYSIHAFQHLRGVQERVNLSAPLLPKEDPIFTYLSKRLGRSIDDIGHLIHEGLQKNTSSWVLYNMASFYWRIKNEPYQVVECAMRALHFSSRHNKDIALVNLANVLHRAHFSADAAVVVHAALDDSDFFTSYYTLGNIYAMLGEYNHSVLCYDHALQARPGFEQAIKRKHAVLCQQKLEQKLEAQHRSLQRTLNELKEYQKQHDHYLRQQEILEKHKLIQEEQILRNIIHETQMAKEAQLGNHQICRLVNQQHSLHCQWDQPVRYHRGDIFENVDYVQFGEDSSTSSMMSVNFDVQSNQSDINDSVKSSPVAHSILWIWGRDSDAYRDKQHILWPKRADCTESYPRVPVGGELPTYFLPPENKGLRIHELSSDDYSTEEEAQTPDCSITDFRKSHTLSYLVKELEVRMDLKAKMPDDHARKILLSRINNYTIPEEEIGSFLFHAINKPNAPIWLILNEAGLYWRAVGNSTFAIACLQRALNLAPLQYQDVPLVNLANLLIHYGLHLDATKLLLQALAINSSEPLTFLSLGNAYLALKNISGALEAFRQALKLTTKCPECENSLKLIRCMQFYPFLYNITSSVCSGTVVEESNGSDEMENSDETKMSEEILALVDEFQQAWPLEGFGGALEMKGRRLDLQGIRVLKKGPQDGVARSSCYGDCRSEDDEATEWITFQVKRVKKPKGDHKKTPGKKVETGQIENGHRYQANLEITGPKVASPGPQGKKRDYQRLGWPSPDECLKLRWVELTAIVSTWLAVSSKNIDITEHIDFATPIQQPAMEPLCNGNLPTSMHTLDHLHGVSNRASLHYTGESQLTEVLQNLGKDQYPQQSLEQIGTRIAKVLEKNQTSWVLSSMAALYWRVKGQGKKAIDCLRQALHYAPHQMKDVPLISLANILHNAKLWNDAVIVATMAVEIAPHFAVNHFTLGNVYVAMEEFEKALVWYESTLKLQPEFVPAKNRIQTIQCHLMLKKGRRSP
UniProt Q8WUA8: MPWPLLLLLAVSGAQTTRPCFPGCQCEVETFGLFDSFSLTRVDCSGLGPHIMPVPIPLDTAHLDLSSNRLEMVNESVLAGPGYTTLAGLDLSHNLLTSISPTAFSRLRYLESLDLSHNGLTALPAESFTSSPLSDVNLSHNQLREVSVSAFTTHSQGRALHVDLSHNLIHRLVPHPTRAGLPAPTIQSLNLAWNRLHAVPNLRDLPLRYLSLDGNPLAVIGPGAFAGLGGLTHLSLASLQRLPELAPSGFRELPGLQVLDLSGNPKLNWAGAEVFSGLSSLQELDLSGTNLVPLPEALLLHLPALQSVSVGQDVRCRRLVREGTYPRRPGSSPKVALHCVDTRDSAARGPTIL
UniProt O95857: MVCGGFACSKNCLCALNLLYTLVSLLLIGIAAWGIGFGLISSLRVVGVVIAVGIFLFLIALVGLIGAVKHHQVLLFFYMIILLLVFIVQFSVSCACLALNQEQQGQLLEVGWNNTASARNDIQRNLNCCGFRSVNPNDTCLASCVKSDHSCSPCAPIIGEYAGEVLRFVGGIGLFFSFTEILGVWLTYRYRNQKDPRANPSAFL
UniProt Q9UJT1: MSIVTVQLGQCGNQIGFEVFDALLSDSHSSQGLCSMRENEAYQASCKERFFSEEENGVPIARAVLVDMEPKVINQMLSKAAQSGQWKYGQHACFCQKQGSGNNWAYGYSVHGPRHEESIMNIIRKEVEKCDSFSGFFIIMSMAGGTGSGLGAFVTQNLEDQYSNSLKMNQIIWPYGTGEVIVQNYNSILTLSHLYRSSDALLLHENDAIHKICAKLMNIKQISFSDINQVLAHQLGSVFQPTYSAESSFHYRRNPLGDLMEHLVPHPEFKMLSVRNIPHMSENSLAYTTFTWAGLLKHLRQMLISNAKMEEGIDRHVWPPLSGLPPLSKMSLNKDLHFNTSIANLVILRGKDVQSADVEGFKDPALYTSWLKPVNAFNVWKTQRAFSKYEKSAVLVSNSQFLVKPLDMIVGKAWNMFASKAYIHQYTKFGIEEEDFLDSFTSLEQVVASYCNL
UniProt Q96ET8: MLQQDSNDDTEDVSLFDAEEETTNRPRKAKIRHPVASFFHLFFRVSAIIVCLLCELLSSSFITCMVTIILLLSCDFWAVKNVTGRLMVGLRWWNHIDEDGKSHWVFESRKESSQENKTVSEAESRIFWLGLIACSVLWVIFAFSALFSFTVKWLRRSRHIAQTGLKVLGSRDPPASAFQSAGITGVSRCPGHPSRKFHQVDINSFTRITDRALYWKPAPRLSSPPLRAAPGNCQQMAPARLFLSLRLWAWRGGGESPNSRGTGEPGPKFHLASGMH
UniProt P51668: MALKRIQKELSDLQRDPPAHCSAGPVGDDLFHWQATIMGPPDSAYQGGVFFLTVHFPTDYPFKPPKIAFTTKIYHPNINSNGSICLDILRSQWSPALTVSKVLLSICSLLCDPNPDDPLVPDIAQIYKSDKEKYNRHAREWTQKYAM
UniProt O14817: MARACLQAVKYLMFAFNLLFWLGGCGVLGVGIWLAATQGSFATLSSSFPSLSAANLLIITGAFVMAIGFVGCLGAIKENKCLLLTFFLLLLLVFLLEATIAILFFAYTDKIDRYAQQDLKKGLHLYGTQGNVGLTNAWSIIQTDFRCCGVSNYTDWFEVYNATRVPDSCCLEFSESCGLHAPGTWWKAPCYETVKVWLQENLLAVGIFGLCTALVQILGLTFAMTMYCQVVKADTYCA

compound: Cn1cncc1[C@@](N)(c1ccc(Cl)cc1)c1ccc2c(c1)c(-c1cccc(Cl)c1)cc(=O)n2C [tipifarnib]; assay: log2 fold change, soluble protein after heating vs DMSO (PISA); higher = thermal stabilisation; K562 cells, 10 uM, 30 min; active = over 0.2 and 3.5 SD of the protein, either way, in both replicates (recomputed)
How it was run: (§1)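 K562 cells at 2×10^6 cells/mL were given 10 μM compound for 30 min. Aliquots then went through 3 min of heating across 48°C-58°C, were pooled, and were extracted in PBS with 0.5% NP-40 at 4°C, and the supernatant after 21,000xg for 90 min was quantified by TMTpro 16plex LC-MS/MS with channel sums equalised. Thermal stability relative to control samples, from duplicates, is given as log2 fold change.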

Target	log2 fold change
TUBGCP5 (UniProt Q96RT8)	inactive: -0.01
TYK2 (UniProt P29597)	inactive: 0.087
TTC21B (UniProt Q7Z4L5)	inactive: 0.114
TXNDC2 (UniProt Q86VQ3)	inactive: 0.008
TXNRD1 isoform 7 (UniProt Q16881)	inactive: -0.051
UBE2J2 isoform 3 (UniProt Q8N2K1)	inactive: 0.041
TSPYL1 (UniProt Q9H0U9)	inactive: 0.113
TTC17 isoform 2 (UniProt Q96AE7)	inactive: 0.036
TSKU (UniProt Q8WUA8)	inactive: -0.005
TSPAN13 (UniProt O95857)	inactive: -0.008
TYW5 (UniProt A2RUC4)	inactive: 0.129
TUBD1 (UniProt Q9UJT1)	inactive: 0.034
TWISTNB (UniProt Q3B726)	inactive: 0.042
TVP23C (UniProt Q96ET8)	inactive: 0.041
UBE2D1 (UniProt P51668)	inactive: -0.089
UBAP2L (UniProt F8W726)	inactive: 0.245

compound: FC(F)(F)c1ccc(/C=C/c2nc(COc3ccc(CCCCn4ccnn4)cc3)co2)cc1 [mubritinib]; assay: as above
How it was run: as §1

Target	log2 fold change
U2AF1L5 (UniProt P0DN76)	inactive: 0.173
TTR (UniProt P02766)	inactive: -0.093
TSPAN4 (UniProt O14817)	inactive: 0.325
TSPAN13 (UniProt O95857)	inactive: 0.226
TYW5 (UniProt A2RUC4)	inactive: 0.087
TWISTNB (UniProt Q3B726)	inactive: 0.104
TVP23C (UniProt Q96ET8)	inactive: 0.04
UBE2D1 (UniProt P51668)	inactive: 0.085
UBAP2L (UniProt F8W726)	inactive: -0.032
